Laboratory results taken from EP0654028B1, “3- AND 5-SUBSTITUTED 1,2,3,4-OXATRIAZOLE-5-IMINE COMPOUNDS, A PROCESS FOR THE PREPARATION THEREOF, A PHARMACEUTICAL PREPARATION CONTAINING SAID COMPOUNDS AND THE USE OF SAID COMPOUNDS FOR THE PREPARATION OF MEDICAMENTS” (A/S GEA Farmaceutisk Fabrik, priority 1992, dated 1994).
At least one structure is not confirmed: it was looked up by name or label, or the drawing left a doubt.

Test system: isolated trachea from a guinea pig
Experiment: Relaxation of carbamylcholine pre-contracted isolated tracheal strips (Emmerson & MacKay)
Format: cell-based
Settings: tracheal strips permanently contracted with carbamylcholine 0.3 µM, Krebs buffer 37°C; concentration relaxing the organ by 50% relative to maximum relaxation; read-out: IC₅₀

| Compound | IC50 [µM] |
| --- | --- |
| Cc1c(Cl)cccc1-[n+]1noc([N-]C(=O)NS(=O)(=O)c2ccccc2)n1 [Example 1, 3-(3-chloro-2-methylphenyl)-1,2,3,4-oxatriazole-5-(N-phenylsulphonylcarbamoyl) imine] | 3.9 |
| COc1ccc(S(=O)(=O)NC(=O)[N-]c2n[n+](-c3cccc(Cl)c3C)no2)cc1 [Example 6, 3-(3-chloro-2-methylphenyl)-1,2,3,4-oxatriazole-5-(N-4-methoxy-phenylsulphonylcarbamoyl)imine] | 3.9 |
| CCOC(=O)CNC(=O)[N-]c1n[n+](-c2cccc(Cl)c2C)no1 [Example 8, 3-(3-chloro-2-methylphenyl)-1,2,3,4-oxatriazole-5-(N-carbethoxymethylcarbamoyl)imine] | 11 |
